Residue numbers refer to the chain shown, from its start. For part of these data: A negative result means that nothing was seen under these conditions. Tags and fusion partners may be left off the protein sequences shown. For part of these data: For at least one entry, the source does not settle the construct or the ends of the probe.
Experiments:
Test in all cases: activity in cells
[1] = biological target: T1, ASRE(LacZ) (artificial (Homo sapiens domains)) (UniProt Q14671); conditions: lacZ mRNA and beta-galactosidase decreased in E. coli; 5 mM Mn2+; protein in cells; protein details: pET43.1b Nus/His, fusion to SMG6 PIN domain
T1 sequence: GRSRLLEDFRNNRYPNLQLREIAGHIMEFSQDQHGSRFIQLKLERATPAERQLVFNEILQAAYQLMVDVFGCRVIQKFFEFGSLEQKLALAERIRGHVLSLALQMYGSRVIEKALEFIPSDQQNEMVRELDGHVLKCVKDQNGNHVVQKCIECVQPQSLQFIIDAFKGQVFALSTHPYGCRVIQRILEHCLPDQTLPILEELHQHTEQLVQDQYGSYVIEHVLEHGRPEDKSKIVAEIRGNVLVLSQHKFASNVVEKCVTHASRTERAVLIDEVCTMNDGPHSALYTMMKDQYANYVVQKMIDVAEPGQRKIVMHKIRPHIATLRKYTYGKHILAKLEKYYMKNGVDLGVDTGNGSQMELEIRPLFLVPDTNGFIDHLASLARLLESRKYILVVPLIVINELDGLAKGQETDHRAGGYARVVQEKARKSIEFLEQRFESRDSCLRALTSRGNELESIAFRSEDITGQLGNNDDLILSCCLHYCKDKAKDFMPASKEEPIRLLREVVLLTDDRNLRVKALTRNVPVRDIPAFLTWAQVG

[2] = biological target: T2, ASRE(87621) (artificial (Homo sapiens domains)) (UniProt Q14671); conditions: non-specific control ASRE; no comparable silencing; protein in cells; protein details: pET43.1b Nus/His, fusion to SMG6 PIN domain
T2 sequence: T1 sequence with Q40E, S108C, E112Q, S252N, E256Q, N295S, Q299E

[3] = biological target: T3, mitoASRE(ND5) (artificial (Homo sapiens domains)) (UniProt Q14671); conditions: tetracycline-induced 293 stable cells, 24 h; protein in cells
T3 sequence: T1 sequence with Q40E, C72N, R73Y, S216N, E220Q, S252N, E256Q

| Sequence | functional effect [1] | functional effect [2] | functional effect (% mRNA decrease) [3] |
| --- | --- | --- | --- |
| UGGAUGAA [lacZ mRNA site] | active | not active | – |
| UUUAUGUG [mtND5 mRNA site] | – | – | 70 |
